Results deposited as PubChem BioAssay AID602196 (INSERM, 2012)

Assay: 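Knock-downs that protect lung cancer cells from cisplatin or sensitise them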
System: human A549 lung cancer cells
Reagents: siRNA pair against human genes
Duration: 48 h transfection before cisplatin; time from cisplatin to read-out not stated
Challenge: cisplatin at a dose killing half of control-siRNA cells; exact dose and duration not given
Measured: 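Shift in cisplatin death relative to control siRNA, from -50 (all cells die) to +50 (no cells die); siRNAs harmful on their own scored 0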
Reading the numbers: two-siRNA summed score (-2 to +2): higher = both siRNAs protect from cisplatin killing; -2 means both sensitise; mean protection from cisplatin (shift in death) and protection from cisplatin (shift in death), siRNA C and protection from cisplatin (shift in death), siRNA D: higher = protection from cisplatin killing
Active means: 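siRNAs harmful alone (LDH or WST-1) get 0; others get +1 for less and -1 for more cisplatin killing; genes are active when the two siRNAs give the same sign, summing to ±2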
Meaning of the calls: active = both siRNAs shift cisplatin killing the same way; inactive = no consistent shift, or siRNA harmful alone
In all, the deposit lists about 23,000 reagents; shown is a random part of them. In the full data, 455 (2%) are marked active. 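Active includes both protection and sensitisation; some change values fall well beyond the stated -50 to +50 range.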 Reagents against one gene are numbered here. Not given: the amount of reagent.

gene | reagent no. | two-siRNA summed score (-2 to +2) | mean protection from cisplatin (shift in death) (%) | protection from cisplatin (shift in death), siRNA C (%) | protection from cisplatin (shift in death), siRNA D (%) | outcome
ANAPC13 | 1 | 0 | 0.6 | -2.1 | 3.3 | inactive
SNAPC1 | 1 | 1 | 8.4 | 5.4 | 11.5 | inactive
TRIM51 | 1 | 0 | 8.1 | 9.8 | 6.4 | inactive
ARMC12 | 1 | 0 | 5.2 | 1.9 | 8.5 | inactive
QSOX2 | 1 | 0 | 18.4 | 15.5 | 21.4 | inactive
NAA38 | 1 | 0 | 10.4 | 0.9 | 20 | inactive
ADGRF1 | 1 | 0 | 12.2 | 14.5 | 10 | inactive
ADGRF1 | 2 | 0 | 20 | 33.4 | 6.6 | inactive
LOC440802 | 1 | 0 | -7.7 | -13.6 | -1.7 | inactive
ZNF500 | 1 | 0 | 4.7 | 4.4 | 4.9 | inactive
ZNF382 | 1 | 0 | -1.6 | -2.8 | -0.3 | inactive
AIMP2 | 1 | 0 | -3.4 | -11.5 | 4.6 | inactive
NSUN7 | 1 | 0 | 7.4 | 3.4 | 11.4 | inactive
YAE1 | 1 | 0 | 7.5 | 7 | 7.9 | inactive
PEX39 | 1 | 1 | 42.8 | 27.7 | 57.9 | inactive
LOC346990 | 1 | 0 | -2.8 | 3.8 | -9.4 | inactive
GDF5 | 1 | -1 | -15.9 | -0.4 | -31.4 | inactive
LOC390468 | 1 | 0 | 0.1 | 3 | -2.9 | inactive
OR13F1 | 1 | 0 | 15.5 | 6.6 | 24.4 | inactive
EXOC8 | 1 | 0 | 4.8 | -2 | 11.6 | inactive
ITGB3BP | 1 | -1 | -15.3 | -19.5 | -11.2 | inactive
SERPINB4 | 1 | 0 | 0.3 | -11.5 | 12.1 | inactive
GOLGA6L5P | 1 | 1 | 5.7 | 16.1 | -4.7 | inactive
ABL1 | 1 | 0 | 2.2 | -1.5 | 6 | inactive
TWNK | 1 | 0 | 4.1 | -4.1 | 12.4 | inactive
INPP5B | 1 | -1 | -7.4 | -8.5 | -6.3 | inactive
LOC389095 | 1 | 1 | 14.6 | 16.7 | 12.5 | inactive
PRR19 | 1 | 1 | 16.7 | 22.6 | 10.7 | inactive
TRIM51G | 1 | 0 | -8.4 | -3.5 | -13.4 | inactive
MSH5 | 1 | -1 | -15.5 | -23.8 | -7.3 | inactive
LOC284546 | 1 | 0 | 7.5 | 1.3 | 13.6 | inactive

The list goes on; the last 4 above are carried over.
gene | reagent no. | two-siRNA summed score (-2 to +2) | mean protection from cisplatin (shift in death) (%) | protection from cisplatin (shift in death), siRNA C (%) | protection from cisplatin (shift in death), siRNA D (%) | outcome
PRR19 | 1 | 1 | 16.7 | 22.6 | 10.7 | inactive
TRIM51G | 1 | 0 | -8.4 | -3.5 | -13.4 | inactive
MSH5 | 1 | -1 | -15.5 | -23.8 | -7.3 | inactive
LOC284546 | 1 | 0 | 7.5 | 1.3 | 13.6 | inactive
RORA | 1 | 0 | -5.2 | -4.6 | -5.8 | inactive
OR51B4 | 1 | 0 | -1.1 | -4.6 | 2.3 | inactive
LOC389101 | 1 | 1 | 10.9 | 9.7 | 12.1 | inactive
ARMC8 | 1 | 0 | 8.7 | 9.4 | 7.9 | inactive
SREK1 | 1 | 0 | -1.9 | -11.8 | 8 | inactive
NFIA | 1 | -1 | -9.5 | 9.1 | -28.2 | inactive
SPICE1 | 1 | 0 | 0.3 | -7.9 | 8.6 | inactive
LOC402537 | 1 | 0 | 6.5 | 6.4 | 6.7 | inactive
MTARC1 | 1 | 0 | 0.6 | -0.5 | 1.6 | inactive
TEX9 | 1 | 0 | 2.7 | -10.4 | 15.7 | inactive
MLN | 1 | 0 | -9.5 | -13.8 | -5.3 | inactive
TAPBP | 1 | -1 | -11.3 | -6.8 | -15.7 | inactive
ATP5F1B | 1 | 1 | 16.4 | 28.3 | 4.6 | inactive
DPF2 | 1 | 0 | 3.9 | 12.3 | -4.5 | inactive
DLGAP5 | 1 | -1 | -21.9 | -4.9 | -38.9 | inactive
ICAM2 | 1 | 0 | 14.8 | 10.2 | 19.4 | inactive
LOC392265 | 1 | 0 | 7.7 | 17.7 | -2.3 | inactive
LOC440105 | 1 | 0 | 11.3 | 12.6 | 9.9 | inactive
CNIH3 | 1 | 0 | 8.8 | 3.2 | 14.4 | inactive
LOC440324 | 1 | 0 | 8.6 | 11.3 | 6 | inactive
DNAI3 | 1 | 0 | -3.8 | 7.6 | -15.2 | inactive
BAALC | 1 | 0 | 2 | -11.1 | 15.1 | inactive
ZNF321P | 1 | 1 | 4.1 | 18.5 | -10.3 | inactive
LAPTM4B | 1 | 0 | -0.2 | -6.9 | 6.5 | inactive
MUC5B | 1 | 0 | 17.1 | 5 | 29.3 | inactive
LOC442624 | 1 | 0 | 10.3 | 15.2 | 5.5 | inactive
